Chains of the proteins cited; added tags and fusions are not shown. Lines headed by an entry give the natural chain unless they say otherwise; changes in a name come on top.
UniProt P53855: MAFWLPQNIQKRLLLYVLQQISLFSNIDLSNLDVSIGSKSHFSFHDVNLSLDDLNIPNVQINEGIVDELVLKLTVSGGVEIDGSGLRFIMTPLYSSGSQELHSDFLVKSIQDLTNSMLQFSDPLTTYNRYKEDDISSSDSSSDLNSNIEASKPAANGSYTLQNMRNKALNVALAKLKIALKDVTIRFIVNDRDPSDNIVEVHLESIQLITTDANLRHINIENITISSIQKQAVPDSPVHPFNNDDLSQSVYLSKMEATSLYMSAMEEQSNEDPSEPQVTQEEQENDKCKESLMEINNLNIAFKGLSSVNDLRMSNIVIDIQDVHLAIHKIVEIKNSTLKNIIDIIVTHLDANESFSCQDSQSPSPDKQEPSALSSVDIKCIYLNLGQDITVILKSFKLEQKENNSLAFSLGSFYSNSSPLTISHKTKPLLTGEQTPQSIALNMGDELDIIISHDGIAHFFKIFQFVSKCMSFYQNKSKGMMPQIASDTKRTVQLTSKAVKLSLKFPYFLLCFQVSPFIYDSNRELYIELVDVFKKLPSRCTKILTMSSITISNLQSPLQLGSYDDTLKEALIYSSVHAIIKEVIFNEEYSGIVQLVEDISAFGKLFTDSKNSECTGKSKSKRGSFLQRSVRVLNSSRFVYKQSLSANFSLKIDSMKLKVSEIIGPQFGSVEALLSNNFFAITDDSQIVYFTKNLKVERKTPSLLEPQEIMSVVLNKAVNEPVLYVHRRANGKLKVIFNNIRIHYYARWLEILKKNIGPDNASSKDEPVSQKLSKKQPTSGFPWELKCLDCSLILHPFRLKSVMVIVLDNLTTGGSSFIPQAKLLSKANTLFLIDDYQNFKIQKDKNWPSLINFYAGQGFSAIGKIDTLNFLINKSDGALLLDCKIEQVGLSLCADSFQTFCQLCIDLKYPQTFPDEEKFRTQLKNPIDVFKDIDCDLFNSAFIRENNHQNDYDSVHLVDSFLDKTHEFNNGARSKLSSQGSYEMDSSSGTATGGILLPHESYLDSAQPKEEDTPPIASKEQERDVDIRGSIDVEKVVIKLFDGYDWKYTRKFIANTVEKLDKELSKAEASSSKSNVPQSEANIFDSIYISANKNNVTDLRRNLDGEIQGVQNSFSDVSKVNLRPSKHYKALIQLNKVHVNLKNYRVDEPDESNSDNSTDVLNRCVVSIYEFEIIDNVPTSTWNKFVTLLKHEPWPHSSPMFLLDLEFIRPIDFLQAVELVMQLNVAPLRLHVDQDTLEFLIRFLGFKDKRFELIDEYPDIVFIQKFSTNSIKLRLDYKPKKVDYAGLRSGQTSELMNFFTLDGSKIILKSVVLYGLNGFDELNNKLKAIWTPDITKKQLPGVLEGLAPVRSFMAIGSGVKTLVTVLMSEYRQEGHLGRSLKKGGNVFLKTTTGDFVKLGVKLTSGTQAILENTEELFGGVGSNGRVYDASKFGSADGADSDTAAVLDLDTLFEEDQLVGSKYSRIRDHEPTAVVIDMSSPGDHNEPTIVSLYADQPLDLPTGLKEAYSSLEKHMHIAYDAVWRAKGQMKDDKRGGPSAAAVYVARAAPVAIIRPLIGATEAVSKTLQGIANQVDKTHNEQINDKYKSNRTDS

In article doi:10.1101/2025.05.24.655882:

Tests used:
Assay in all cases: co-IP
[1] = biological target: Atg2^ΔARCH1 (–HA–EGFP) (S. cerevisiae) (UniProt P53855)
[2] = biological target: Atg2^ΔARCH6 (–HA–EGFP) (S. cerevisiae) (UniProt P53855)
[3] = biological target: Atg2^ΔARCH5 (–HA–EGFP) (S. cerevisiae) (UniProt P53855)

B1: Atg18 (co-precipitated with Atg2–HA–EGFP) (protein, UniProt P43601 1-500)
chain: MSDSSPTINFINFNQTGTCISLGTSKGFKIFNCEPFGKFYSEDSGGYAIVEMLFSTSLLALVGIGDQPALSPRRLRIINTKKHSIICEVTFPTSILSVKMNKSRLVVLLQEQIYIYDINTMRLLHTIETNPNPRGLMAMSPSVANSYLVYPSPPKVINSEIKAHATTNNITLSVGGNTETSFKRDQQDAGHSDISDLDQYSSFTKRDDADPTSSNGGNSSIIKNGDVIVFNLETLQPTMVIEAHKGEIAAMAISFDGTLMATASDKGTIIRVFDIETGDKIYQFRRGTYATRIYSISFSEDSQYLAVTGSSKTVHIFKLGHSMSNNKLDSDDSNMEEAAADDSSLDTTSIDALSDEENPTRLAREPYVDASRKTMGRMIRYSSQKLSRRAARTLGQIFPIKVTSLLESSRHFASLKLPVETNSHVMTISSIGSPIDIDTSEYPELFETGNSASTESYHEPVMKMVPIRVVSSDGYLYNFVMDPERGGDCLILSQYSILMD
binding [1]: binds | binding [2]: no binding | binding [3]: no binding

B2: Atg9 (protein, UniProt Q12142 1-997)
chain: MERDEYQLPNSHGKNTFLSRIFGLQSDEVNPSLNSQEMSNFPLPDIERGSSLLHSTNDSREDVDENDLRVPESDQGTSTEEEDEVDEEQVQAYAPQISDGLDGDHQLNSVTSKENVLETEKSNLERLVEGSTDDSVPKVGQLSSEEEEDNEFINNDGFDDDTPLFQKSKIHEFSSKKSNTIEDGKRPLFFRHILQNNRPQRDTQKLFTSSNAIHHDKDKSANNGPRNINGNQKHGTKYFGSATQPRFTGSPLNNTNRFTKLFPLRKPNLLSNISVLNNTPEDRINTLSVKERALWKWANVENLDIFLQDVYNYYLGNGFYCIILEKILNICTLLFVVFVSTYMGHCVDYSKLPTSHRVSDIIIDKCYSNSITGFTKFFLWMFYFFVILKIVQLYFDVQKLSELQNFYKYLLNISDDELQTLPWQNVIQQLMYLKDQNAMTANVVEVKAKNRIDAHDVANRIMRRENYLIALYNSDILNLSLPIPLFRTNVLTKTLEWNINLCVMGFVFNESGFIKQSILKPSQREFTREELQKRFMLAGFLNIILAPFLVTYFVLLYFFRYFNEYKTSPGSIGARQYTPIAEWKFREYNELYHIFKKRISLSTTLANKYVDQFPKEKTNLFLKFVSFICGSFVAILAFLTVFDPENFLNFEITSDRSVIFYITILGAIWSVSRNTITQEYHVFDPEETLKELYEYTHYLPKEWEGRYHKEEIKLEFCKLYNLRIVILLRELTSLMITPFVLWFSLPSSAGRIVDFFRENSEYVDGLGYVCKYAMFNMKNIDGEDTHSMDEDSLTKKIAVNGSHTLNSKRRSKFTAEDHSDKDLANNKMLQSYVYFMDDYSNSENLTGKYQLPAKKGYPNNEGDSFLNNKYSWRKQFQPGQKPELFRIGKHALGPGHNISPAIYSTRNPGKNWDNNNNGDDIKNGTNNATAKNDDNNGNNDHEYVLTESFLDSGAFPNHDVIDHNKMLNSNYNGNGILNKGGVLGLVKEYYKKSDVGR
binding [1]: binds | binding [2]: no binding

Results are given in words; binding and its absence hold for the method and conditions named. In cells and extracts the contact can be indirect. For some assays here: Binding calls can cover weak binding; strength is not graded here. Sequences can lack the tags named with a protein.
